Measurements: PubChem BioAssay AID1347076 (National Center for Advancing Translational Sciences (NCATS), 2019)
The campaign covered roughly 400,000 compounds. About 13,000 (3.2%) were called active. The shares of active, inactive and inconclusive entries below differ from those in the screen. Calls come from the whole dose curve; as a rule, active = well fitted cell-killing curve with a large enough effect; inconclusive = small, poorly fitted or top-dose-only effect, or effect the other way; inactive = flat fitted curve, though single readings scatter. Where the call is inconclusive, the potency comes from a doubtful curve fit.

test: qHTS assay for MDR1-selective chemotherapeutics: Primary screen using the drug-selected MDR subline cells KB-V1; conditions: KB-V1 MDR cells viability, CellTiter-Glo, 72 h; activity change, negative = cytotoxicity: at 46.1 µM (top of the series); note: nearly all actives have a fitted effect of over 60% in size
Outline: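 Potencies derive from concentration-effect curves fitted to normalized luminescence (CellTiter-Glo) of KB-V1 cells treated for 72 h at 37 degrees C in phenol-red-free DMEM containing 10% FBS.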
% is set by controls: 0 for no effect and ±100 for the full control effect; potency is the fitted concentration of half-maximal effect.

Structure (SMILES)	Potency	activity change, negative = cytotoxicity
Cc1ccc(C)c(S(=O)(=O)N2CCN(C(=O)CCNC(=O)c3ccc(Br)cc3)CC2)c1	inconclusive: 9.2 µM [cytotoxic, partial curve]	–
CCO[C@@H]1OC(C(=O)N2CCN(Cc3ccc4c(c3)OCO4)CC2)=C[C@H](c2ccc(C(F)(F)F)cc2)[C@H]1CCCO	active: 25.9 µM	–
CCCn1c(N)c(C(=O)CSc2ncn[nH]2)c(=O)n(C)c1=O	inactive	–
C=Cc1ccc(Cn2c(C(=O)O)c(CNCc3cc(Br)ccc3OC)c3ccc(C)cc32)cc1	inconclusive: 29.1 µM [rising, single point]	–
COc1ccc2cc3cc(C(=O)N4CCCC(C)C4)oc3nc2c1 (stereo unspecified)	inactive	–
CC(=O)c1cnn(-c2ccc(Cl)cc2)c1C	inconclusive: 29.1 µM [cytotoxic, single point]	–
COc1ccc(CCNC(=O)CN(c2cc(OC)ccc2OC)S(=O)(=O)c2ccccc2)cc1	active: 23.1 µM	–
C=CCn1c(SCC(=O)NC2CCCc3ccccc32)nnc1-c1ccncc1 (stereo unspecified)	inconclusive: 16.4 µM [cytotoxic, single point]	–
CCCN1C(=O)C2(c3ccccc31)c1c(oc3ccccc3c1=O)C(=O)N2CCO (stereo unspecified)	inactive	–
Cc1cccc(N2CCN(C(=O)CS(=O)(=O)c3cccc4nsnc34)CC2C)c1 (stereo unspecified)	inconclusive: 20.6 µM [cytotoxic, partial curve]	–
COc1ccc(C)cc1NC(=O)c1sc2nc(C)nc(N3CCOCC3)c2c1C	inactive	–
O=C(c1ccc(Cl)c(S(=O)(=O)NCc2ccco2)c1)N1CCN(c2ccc(F)cc2)CC1	inconclusive: 29.1 µM [cytotoxic, single point]	–
Cc1ccc(NC(=O)CSCC(=O)Nc2ccccc2C(=O)NC2CC2)cc1	inconclusive: 29.1 µM [cytotoxic, partial curve, poor fit]	–
COc1ccc(-c2cn3c(C)c(C(=O)N4CCN(c5ccccc5F)CC4)sc3n2)cc1	inconclusive: 18.4 µM [cytotoxic, partial curve]	–
COc1cccc(-c2cccc3c2NC(=O)C3(C)Cc2cccc(F)c2)c1 (stereo unspecified)	inconclusive: 18.4 µM [cytotoxic, single point]	–
CCSc1nnc(NC(=O)c2cccc3ccccc23)s1	inactive	–
Cc1oc(C(=O)Nc2ccc(O)cc2)cc1COc1ccccc1	inactive	–
COc1ccccc1-c1nnc(C2CCN(C(=O)c3ccc(C)cc3)CC2)o1	inactive	–
COc1ccc2nc3oc(C(=O)NCc4ccccc4OC)cc3cc2c1	inactive	–
NC(=O)CSc1ncc2c(n1)-c1ccccc1N(Cc1cccc(F)c1)S2(=O)=O	inactive	–
CN(C)S(=O)(=O)c1ccc2c(c1)N(CC(=O)N1CCN(c3ccc(F)cc3)CC1)CCS2	inconclusive: 3.66 µM [cytotoxic, full curve]	–
COc1ccc(-c2cc(C(F)F)n3ncc(C(=O)NCCCN4CCCC4=O)c3n2)cc1	inconclusive: 25.9 µM [cytotoxic, partial curve, poor fit]	–
Cc1nnc(NC(=O)CSc2nnc(CNC(=O)c3ccccc3)o2)s1	inconclusive: 18.4 µM [rising, single point]	–

Full records, looked up by structure. Order of values: Potency | activity change, negative = cytotoxicity
CCO[C@@H]1OC(C(=O)N2CCN(Cc3ccc4c(c3)OCO4)CC2)=C[C@H](c2ccc(C(F)(F)F)cc2)[C@H]1CCCO is entered as active: 25.9 µM | –
COc1ccc2nc3oc(C(=O)NCc4ccccc4OC)cc3cc2c1 is entered as inactive | –

(next part)

Structure (SMILES)	Potency	activity change, negative = cytotoxicity
CN1CCC(CNC(=O)Nc2ccccc2)(c2ccccc2)CC1	inconclusive: 20.6 µM [rising, single point]	–
CCC(=O)NC(Nc1sc2c(c1C(=O)OC)CCC2)C(Cl)(Cl)Cl (stereo unspecified)	active: 23.1 µM	–
CC1(C)CC(=O)c2c(oc3c(Cl)cc(NS(=O)(=O)c4ccc(Cl)cc4)cc23)C1	inactive	–
CC(=O)N1CCSc2ccc(S(=O)(=O)N3CCC(C)CC3)cc21	inconclusive: 29.1 µM [cytotoxic, single point]	–
O=C(CN(C(=O)Cn1nnc(-c2ccccc2F)n1)c1cccc2c1CCCC2)NCc1ccccc1	active: 10.3 µM	–
CS(=O)(=O)Nc1ccc(-c2cnc3cccnn23)cc1	inconclusive: 29.1 µM [cytotoxic, single point]	–
N#Cc1ccccc1CSc1nc(N)cc(N)n1	inconclusive: 4.11 µM [rising, partial curve, poor fit]	–
Cc1nc2ccccc2c(=O)n1-c1ccc(NC(=O)C(F)(F)F)cc1	inactive	–
COc1cccc(-c2cc(C(=O)NCC3CCCO3)c3cc(Br)cc(C)c3n2)c1 (stereo unspecified)	inactive	–
COc1cc(-c2nc3c4ccccc4nc(=S)n3[nH]2)cc(OC)c1OC	–	inconclusive: -30.3% [cytotoxic]
NC(CSC1(c2cccc3ccccc23)c2ccccc2-c2ccccc21)C(=O)O (stereo unspecified)	inconclusive: 13 µM [cytotoxic, partial curve]	–
Cc1ccc(NC(=O)c2cc3ccccc3oc2=N)cc1	inactive	–
CCCCC[C@H]1CN(C2CCCCC2)C(=O)[C@@H]1CC(=O)NCc1ccc(OC)cc1	inconclusive: 20.6 µM [cytotoxic, partial curve, poor fit]	–
Cc1c(Cl)c([N+](=O)[O-])nn1CCCC(=O)Nc1cccc(Cl)c1Cl	active: 16.4 µM	–
COc1cc2c(c(OC)c1OC)-c1ccc(OC)c(=O)cc1[C@@H](NC(C)=O)CC2	active: 7.31 µM	–
CN(C(=O)/C(N=Nc1cccc(C(F)(F)F)c1)=C(\O)C(F)(F)F)c1ccccc1	inconclusive: 18.4 µM [cytotoxic, partial curve]	–
Cc1sc2ncnc(NCC3(N4CCOCC4)CCCCC3)c2c1C	inconclusive: 11.6 µM [cytotoxic, partial curve]	–
Cc1c(O)ccc2c(CN3CCN(C/C=C/c4ccccc4)CC3)cc(=O)oc12	inconclusive: 23.1 µM [cytotoxic, single point]	–
CN(C)C(CNC(C(=O)Nc1ccc(F)cc1)c1ccccc1)c1ccccc1 (stereo unspecified)	inconclusive: 8.2 µM [cytotoxic, partial curve]	–
CCOC(=O)c1sc2nc(-c3ccco3)c3c(c2c1N)CC(C)(C)OC3	active: 11.6 µM	–
CCCc1noc2c1/C(=N\O)CC(c1ccccc1)C2 (stereo unspecified)	inactive	–
CCCCNC(=O)Nc1ccnn1C1CCCCC1	inactive	–
O=C(Nc1ccc(Cl)cc1)N1CCN(c2ccc3nnc(-c4ccc(F)cc4)n3n2)CC1	inconclusive: 13 µM [cytotoxic, partial curve]	–
